Experimental data: the supplement of paper PMC7411640
Where a name gives a salt, the structure may show the parent alone. Some of the results follow. This data set is noisy: repeats of one test often differ as much as different tests do.

Tested on: MDA-MB-468
Experiment: phospho-S6 immunofluorescence (DAPI-normalised), per-plate z-score; higher = higher phospho-S6 signal (less pathway suppression)
Settings: 24 h
Protocol: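 GPCR-targeted compound library (MedChemExpress HY-L006) tested on MDA-MB-468 PTEN-null TNBC cells in 384-well plates at 0.1, 1 or 10 uM, combined with vehicle, GDC0941 450 nM or lapatinib 1 uM, for 24 h. Phospho-S6 (S240/244) immunofluorescence normalised to DAPI and expressed as a per-plate z-score; values are the mean of biological triplicates.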

[1] = compound 0.1 µM, co-treatment: GDC0941 450 nM
[2] = compound 0.1 µM, co-treatment: lapatinib 1 uM
[3] = compound 0.1 µM, co-treatment: vehicle
[4] = compound 1 µM, co-treatment: GDC0941 450 nM
[5] = compound 1 µM, co-treatment: lapatinib 1 uM
[6] = compound 1 µM, co-treatment: vehicle

Row | Compound | phospho-S6 immunofluorescence (z-score) [1] | phospho-S6 immunofluorescence (z-score) [2] | phospho-S6 immunofluorescence (z-score) [3] | phospho-S6 immunofluorescence (z-score) [4] | phospho-S6 immunofluorescence (z-score) [5] | phospho-S6 immunofluorescence (z-score) [6]
1 | CC(=O)OCC(=O)[C@@]1(O)CC[C@H]2[C@@H]3CCC4=CC(=O)CC[C@]4(C)[C@H]3C(=O)C[C@@]21C [Cortisone (acetate)] | 0.31 | 0.83 | 0.56 | 1.42 | 0.92 | 0.8
2 | O=C(O)COCCN1CCN(C(c2ccccc2)c2ccc(Cl)cc2)CC1 (stereo not given) [Cetirizine (dihydrochloride)] | -0.41 | -0.16 | -0.79 | -0.04 | 0.09 | -0.31
3 | Cc1ccc(/C(=C\CN2CCCC2)c2cccc(/C=C/C(=O)O)n2)cc1 [Acrivastine] | -0.8 | 0.68 | 0.12 | -1.03 | 0.54 | 1
4 | CC(ONC(=O)c1cc(C(F)(F)F)cc(C(F)(F)F)c1)C(=O)Nc1ccc(Cl)cc1 (stereo not given) | 0.76 | 0.5 | 0.77 | -0.14 | 0.34 | 0.79
5 | CN(C)CCC(c1ccc(Br)cc1)c1ccccn1 (stereo not given) [Brompheniramine (maleate)] | 0.08 | -0.39 | -0.68 | -0.52 | -0.37 | 1.16
6 | CN(C)CC/C=C1/c2ccccc2COc2ccc(CC(=O)O)cc21 [Olopatadine (hydrochloride)] | 0.86 | -0.06 | 0.31 | -0.06 | -0.72 | -0.46
7 | Cc1ccc(OCC(O)C(C)NC(C)C)c2c1CCC2 (stereo not given) [ICI 118,551 (hydrochloride)] | 0.22 | -0.26 | 1.36 | 1.22 | 0.88 | -0.07
8 | C[C@H](Cc1cc2c(c(C(N)=O)c1)N(CCCO)CC2)NCCOc1ccccc1OCC(F)(F)F [Silodosin] | -0.37 | 0.57 | 0.23 | -0.98 | -0.13 | 0.25
9 | Cc1c(CC(=O)O)c2cccnc2n1Cc1ccc(S(C)(=O)=O)cc1C(F)(F)F [Fevipiprant] | 0.86 | -0.03 | 1.24 | 0.27 | 0.08 | 0.63
10 | CCOCCn1c(C2CCN(CCc3ccc(C(C)(C)C(=O)O)cc3)CC2)nc2ccccc21 [Bilastine] | -0.46 | -1.1 | 1.22 | -1.29 | -1.07 | -1.04
11 | COc1ccccc1Oc1c(NS(=O)(=O)c2ccc(C(C)(C)C)cc2)nc(-c2ncccn2)nc1OCCO [Bosentan] | 0.14 | -0.44 | -0.79 | 0.25 | -0.3 | 0.02
12 | NCCCCN(Cc1nc2ccccc2[nH]1)[C@H]1CCCc2cccnc21 [AMD-070 (hydrochloride)] | 1.28 | -0.05 | 2.3 | -0.8 | 0.55 | 4.21
13 | COc1cc2c(cc1OC)CC(=O)N(CCCN(C)C[C@H]1Cc3cc(OC)c(OC)cc31)CC2 [Ivabradine (hydrochloride)] | 0.33 | -0.32 | 0.21 | 0.55 | 0.14 | 1.34
14 | O=c1cc(C(Cl)(Cl)Cl)oc2ccc(Cl)cc12 | -0.28 | 8.2 | 5.48 | -7.24 | -13.5 | -11.4
15 | CNC[C@H](O)c1cccc(O)c1 [(R)-(-)-Phenylephrine (hydrochloride)] | 1.11 | 0.82 | 0.77 | 0.85 | 0.67 | 0.87
16 | OC(CCCN1CCCCC1)(c1ccccc1)c1ccccc1 [Diphenidol (hydrochloride)] | 0.67 | 0.36 | 0.02 | 1.57 | -0.21 | 0
17 | CS(=O)(=O)c1cc(F)cc2c3c(n(Cc4ccc(Cl)cc4)c12)[C@@H](CC(=O)O)CC3 [Laropiprant] | 1.31 | 0.6 | 1.7 | 1.63 | 0.74 | 1.75
18 | CNC[C@H](O)c1ccc(O)c(O)c1 [L-Epinephrine (Bitartrate)] | -1.12 | 2.65 | -0.56 | 0.3 | 3.13 | -0.97
19 | CN1CCN(CC(=O)N2c3ccccc3C(=O)Nc3cccnc32)CC1 [Pirenzepine (dihydrochloride)] | 1.31 | 0.13 | 1.85 | 1.67 | 0.29 | 2.34
20 | COc1cc2nc(N(C)CCCNC(=O)C3CCCO3)nc(N)c2cc1OC (stereo not given) [Alfuzosin] | -0.96 | -0.34 | 0.03 | 0.46 | -0.14 | 0.13
21 | C=CCN1CCCC1CNC(=O)c1cc(S(N)(=O)=O)cc(OC)c1OC (stereo not given) [Veralipride] | -0.03 | 0.83 | -0.01 | -0.48 | 1.32 | -0.6
22 | CC1(C)C(=O)N(CCN2CCC(C(=O)c3ccc(F)cc3)CC2)c2ccccc21 | -0.02 | -0.2 | -0.1 | 0.58 | -0.23 | -0.7
23 | CCOC(=O)O[C@]1(C(=O)OCCl)CC[C@H]2[C@@H]3CCC4=CC(=O)C=C[C@]4(C)[C@H]3[C@@H](O)C[C@@]21C [Loteprednol Etabonate] | -1.28 | 0.32 | -0.83 | -0.06 | 0.43 | -0.46
24 | N[C@@H](Cc1ccc(O)c(O)c1)C(=O)O | -0.08 | -0.17 | -1.07 | 0.67 | 0.16 | -0.12
25 | Fc1ccc(-c2cncc(CN3CCN(c4cccc5c4OCCO5)CC3)c2)cc1 [Adoprazine] | -0.21 | -0.2 | -1.15 | -0.22 | -0.65 | -1.91

An excerpt from the list above, for reference:
Row | Compound | phospho-S6 immunofluorescence (z-score) [1] | phospho-S6 immunofluorescence (z-score) [2] | phospho-S6 immunofluorescence (z-score) [3] | phospho-S6 immunofluorescence (z-score) [4] | phospho-S6 immunofluorescence (z-score) [5] | phospho-S6 immunofluorescence (z-score) [6]
9 | Cc1c(CC(=O)O)c2cccnc2n1Cc1ccc(S(C)(=O)=O)cc1C(F)(F)F [Fevipiprant] | 0.86 | -0.03 | 1.24 | 0.27 | 0.08 | 0.63
10 | CCOCCn1c(C2CCN(CCc3ccc(C(C)(C)C(=O)O)cc3)CC2)nc2ccccc21 [Bilastine] | -0.46 | -1.1 | 1.22 | -1.29 | -1.07 | -1.04
